Some of the results follow.
What was measured:
Assay in all cases: log2 fold change, soluble protein after heating vs DMSO (PISA); higher = thermal stabilisation; K562 lysate, 10 uM; active = over 0.2 and 3.5 SD of the protein, either way, in both replicates (recomputed)
[1] = compound: CCCS(=O)(=O)Nc1ccc(F)c(C(=O)c2c[nH]c3ncc(-c4ccc(Cl)cc4)cc23)c1F [vemurafenib]
Outline: (§1)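 Dounce homogenisation of K562 pellets in PBS pH 7.4 with 1 mM MgCl2 produced a crude extract, used at 1 mg/mL protein. Exposure to 10 μM compound lasted 30 min, and aliquots were then heated for 3 min across 48°C-58°C, pooled and brought to 0.5% NP-40 at 4°C. The supernatant after 21,000xg for 90 min was quantified by TMTpro 16plex LC-MS/MS with channel sums equalised. Duplicate values are given as log-two fold change in thermal stability relative to solvent controls.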

Protein sequences, listed by entry. Tags and fused reporters are not part of them. Lines headed by an entry give the natural chain unless they say otherwise; changes in a name come on top.
UniProt Q9H3S4: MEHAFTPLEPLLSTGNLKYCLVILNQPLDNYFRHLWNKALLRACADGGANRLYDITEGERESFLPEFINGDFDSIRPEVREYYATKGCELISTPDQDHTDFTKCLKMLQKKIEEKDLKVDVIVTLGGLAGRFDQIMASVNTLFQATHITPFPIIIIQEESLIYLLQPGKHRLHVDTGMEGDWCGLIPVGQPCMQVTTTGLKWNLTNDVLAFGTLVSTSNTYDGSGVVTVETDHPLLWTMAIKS
UniProt Q96Q45: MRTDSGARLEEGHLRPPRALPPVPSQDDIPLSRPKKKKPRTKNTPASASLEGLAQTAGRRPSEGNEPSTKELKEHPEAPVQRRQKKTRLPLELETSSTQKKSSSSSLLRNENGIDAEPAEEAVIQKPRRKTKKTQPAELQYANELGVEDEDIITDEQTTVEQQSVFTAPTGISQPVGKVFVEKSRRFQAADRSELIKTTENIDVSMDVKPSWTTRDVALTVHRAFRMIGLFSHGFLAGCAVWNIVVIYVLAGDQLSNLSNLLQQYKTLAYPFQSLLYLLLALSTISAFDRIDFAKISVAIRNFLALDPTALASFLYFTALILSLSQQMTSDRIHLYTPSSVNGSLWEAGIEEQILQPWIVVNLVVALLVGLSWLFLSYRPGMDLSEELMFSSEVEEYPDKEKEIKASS
UniProt Q8NDV7: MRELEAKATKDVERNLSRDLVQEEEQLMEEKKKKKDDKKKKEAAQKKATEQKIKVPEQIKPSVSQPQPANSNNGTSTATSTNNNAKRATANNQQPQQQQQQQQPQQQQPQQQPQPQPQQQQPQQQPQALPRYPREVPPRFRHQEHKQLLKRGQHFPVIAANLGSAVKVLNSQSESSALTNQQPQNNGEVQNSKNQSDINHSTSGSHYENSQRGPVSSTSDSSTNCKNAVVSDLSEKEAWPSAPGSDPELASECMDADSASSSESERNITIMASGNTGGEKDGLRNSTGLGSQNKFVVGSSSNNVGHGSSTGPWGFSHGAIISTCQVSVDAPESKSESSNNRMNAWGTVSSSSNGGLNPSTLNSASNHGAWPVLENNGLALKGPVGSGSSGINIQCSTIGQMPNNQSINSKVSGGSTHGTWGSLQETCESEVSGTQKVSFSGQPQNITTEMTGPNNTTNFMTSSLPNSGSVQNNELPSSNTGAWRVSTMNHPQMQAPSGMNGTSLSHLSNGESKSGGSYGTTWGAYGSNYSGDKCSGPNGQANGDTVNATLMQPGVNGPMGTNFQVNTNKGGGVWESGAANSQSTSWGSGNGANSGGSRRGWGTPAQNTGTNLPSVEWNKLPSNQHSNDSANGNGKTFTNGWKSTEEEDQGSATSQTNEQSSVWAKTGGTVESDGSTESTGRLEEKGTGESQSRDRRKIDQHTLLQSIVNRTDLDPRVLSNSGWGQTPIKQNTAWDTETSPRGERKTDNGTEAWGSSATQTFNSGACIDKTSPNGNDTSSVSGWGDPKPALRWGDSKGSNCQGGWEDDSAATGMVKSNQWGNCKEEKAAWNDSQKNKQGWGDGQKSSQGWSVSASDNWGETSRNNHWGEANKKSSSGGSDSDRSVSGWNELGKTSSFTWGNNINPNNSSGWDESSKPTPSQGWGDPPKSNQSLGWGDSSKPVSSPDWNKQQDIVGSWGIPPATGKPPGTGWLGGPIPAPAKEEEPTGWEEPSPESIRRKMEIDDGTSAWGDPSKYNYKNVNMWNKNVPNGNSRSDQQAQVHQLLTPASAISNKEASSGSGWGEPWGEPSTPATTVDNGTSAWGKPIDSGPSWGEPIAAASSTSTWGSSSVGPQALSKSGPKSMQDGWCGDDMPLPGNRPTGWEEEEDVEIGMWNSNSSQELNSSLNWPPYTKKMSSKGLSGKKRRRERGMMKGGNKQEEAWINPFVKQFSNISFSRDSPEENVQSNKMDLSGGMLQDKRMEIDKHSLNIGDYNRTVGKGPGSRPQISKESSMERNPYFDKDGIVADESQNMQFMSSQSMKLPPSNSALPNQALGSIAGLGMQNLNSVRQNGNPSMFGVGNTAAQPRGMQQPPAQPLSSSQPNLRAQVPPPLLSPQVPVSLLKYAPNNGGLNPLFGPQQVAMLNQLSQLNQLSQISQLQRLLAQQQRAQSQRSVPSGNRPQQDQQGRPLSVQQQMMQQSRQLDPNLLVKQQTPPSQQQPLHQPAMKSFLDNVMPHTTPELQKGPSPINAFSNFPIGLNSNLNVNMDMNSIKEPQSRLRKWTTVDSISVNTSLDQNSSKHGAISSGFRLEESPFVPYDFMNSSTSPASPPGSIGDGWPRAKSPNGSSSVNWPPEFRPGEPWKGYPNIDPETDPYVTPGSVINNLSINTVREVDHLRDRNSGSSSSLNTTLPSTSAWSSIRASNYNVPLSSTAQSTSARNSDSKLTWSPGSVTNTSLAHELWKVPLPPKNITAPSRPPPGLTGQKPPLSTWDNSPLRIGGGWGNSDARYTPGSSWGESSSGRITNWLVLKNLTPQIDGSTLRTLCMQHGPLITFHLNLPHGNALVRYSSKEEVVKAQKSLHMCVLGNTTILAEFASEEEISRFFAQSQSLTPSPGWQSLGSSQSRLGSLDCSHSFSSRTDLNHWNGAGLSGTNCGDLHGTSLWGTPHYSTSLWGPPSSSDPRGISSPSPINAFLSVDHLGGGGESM
UniProt Q8N2U0: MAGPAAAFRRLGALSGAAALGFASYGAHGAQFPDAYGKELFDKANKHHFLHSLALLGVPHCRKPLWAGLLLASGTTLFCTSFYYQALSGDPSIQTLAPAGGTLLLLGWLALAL
UniProt Q9HCN3: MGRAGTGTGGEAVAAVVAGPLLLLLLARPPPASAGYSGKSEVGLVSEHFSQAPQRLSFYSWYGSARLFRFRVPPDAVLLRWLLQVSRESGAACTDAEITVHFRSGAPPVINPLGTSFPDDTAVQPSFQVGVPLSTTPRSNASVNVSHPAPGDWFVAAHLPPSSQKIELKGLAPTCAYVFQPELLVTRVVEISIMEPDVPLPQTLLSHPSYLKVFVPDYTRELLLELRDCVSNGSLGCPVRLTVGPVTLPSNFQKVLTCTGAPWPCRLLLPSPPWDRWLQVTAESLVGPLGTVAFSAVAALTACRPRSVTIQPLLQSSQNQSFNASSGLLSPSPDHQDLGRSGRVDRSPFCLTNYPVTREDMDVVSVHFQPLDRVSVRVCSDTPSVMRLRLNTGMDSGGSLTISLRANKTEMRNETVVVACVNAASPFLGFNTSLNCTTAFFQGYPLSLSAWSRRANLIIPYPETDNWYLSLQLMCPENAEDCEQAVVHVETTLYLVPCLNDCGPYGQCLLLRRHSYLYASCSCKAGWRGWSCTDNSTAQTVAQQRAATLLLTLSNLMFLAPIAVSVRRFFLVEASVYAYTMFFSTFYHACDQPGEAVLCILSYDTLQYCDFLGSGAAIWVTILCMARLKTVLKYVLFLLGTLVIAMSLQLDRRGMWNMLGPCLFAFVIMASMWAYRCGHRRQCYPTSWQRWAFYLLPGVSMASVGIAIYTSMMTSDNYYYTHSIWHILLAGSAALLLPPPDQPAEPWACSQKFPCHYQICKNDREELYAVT
UniProt Q9NWH2: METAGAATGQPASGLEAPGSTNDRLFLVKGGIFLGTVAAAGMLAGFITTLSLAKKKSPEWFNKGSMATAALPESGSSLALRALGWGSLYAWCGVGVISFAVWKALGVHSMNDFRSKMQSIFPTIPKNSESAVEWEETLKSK
UniProt P41273, whole entry, looked up: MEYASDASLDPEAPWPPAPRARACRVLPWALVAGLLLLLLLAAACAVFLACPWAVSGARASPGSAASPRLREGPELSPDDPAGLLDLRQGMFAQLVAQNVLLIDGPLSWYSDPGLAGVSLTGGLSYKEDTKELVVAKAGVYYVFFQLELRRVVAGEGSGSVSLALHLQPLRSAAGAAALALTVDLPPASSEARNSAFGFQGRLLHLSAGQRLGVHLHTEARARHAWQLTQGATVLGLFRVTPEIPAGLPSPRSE
UniProt Q9HBL0: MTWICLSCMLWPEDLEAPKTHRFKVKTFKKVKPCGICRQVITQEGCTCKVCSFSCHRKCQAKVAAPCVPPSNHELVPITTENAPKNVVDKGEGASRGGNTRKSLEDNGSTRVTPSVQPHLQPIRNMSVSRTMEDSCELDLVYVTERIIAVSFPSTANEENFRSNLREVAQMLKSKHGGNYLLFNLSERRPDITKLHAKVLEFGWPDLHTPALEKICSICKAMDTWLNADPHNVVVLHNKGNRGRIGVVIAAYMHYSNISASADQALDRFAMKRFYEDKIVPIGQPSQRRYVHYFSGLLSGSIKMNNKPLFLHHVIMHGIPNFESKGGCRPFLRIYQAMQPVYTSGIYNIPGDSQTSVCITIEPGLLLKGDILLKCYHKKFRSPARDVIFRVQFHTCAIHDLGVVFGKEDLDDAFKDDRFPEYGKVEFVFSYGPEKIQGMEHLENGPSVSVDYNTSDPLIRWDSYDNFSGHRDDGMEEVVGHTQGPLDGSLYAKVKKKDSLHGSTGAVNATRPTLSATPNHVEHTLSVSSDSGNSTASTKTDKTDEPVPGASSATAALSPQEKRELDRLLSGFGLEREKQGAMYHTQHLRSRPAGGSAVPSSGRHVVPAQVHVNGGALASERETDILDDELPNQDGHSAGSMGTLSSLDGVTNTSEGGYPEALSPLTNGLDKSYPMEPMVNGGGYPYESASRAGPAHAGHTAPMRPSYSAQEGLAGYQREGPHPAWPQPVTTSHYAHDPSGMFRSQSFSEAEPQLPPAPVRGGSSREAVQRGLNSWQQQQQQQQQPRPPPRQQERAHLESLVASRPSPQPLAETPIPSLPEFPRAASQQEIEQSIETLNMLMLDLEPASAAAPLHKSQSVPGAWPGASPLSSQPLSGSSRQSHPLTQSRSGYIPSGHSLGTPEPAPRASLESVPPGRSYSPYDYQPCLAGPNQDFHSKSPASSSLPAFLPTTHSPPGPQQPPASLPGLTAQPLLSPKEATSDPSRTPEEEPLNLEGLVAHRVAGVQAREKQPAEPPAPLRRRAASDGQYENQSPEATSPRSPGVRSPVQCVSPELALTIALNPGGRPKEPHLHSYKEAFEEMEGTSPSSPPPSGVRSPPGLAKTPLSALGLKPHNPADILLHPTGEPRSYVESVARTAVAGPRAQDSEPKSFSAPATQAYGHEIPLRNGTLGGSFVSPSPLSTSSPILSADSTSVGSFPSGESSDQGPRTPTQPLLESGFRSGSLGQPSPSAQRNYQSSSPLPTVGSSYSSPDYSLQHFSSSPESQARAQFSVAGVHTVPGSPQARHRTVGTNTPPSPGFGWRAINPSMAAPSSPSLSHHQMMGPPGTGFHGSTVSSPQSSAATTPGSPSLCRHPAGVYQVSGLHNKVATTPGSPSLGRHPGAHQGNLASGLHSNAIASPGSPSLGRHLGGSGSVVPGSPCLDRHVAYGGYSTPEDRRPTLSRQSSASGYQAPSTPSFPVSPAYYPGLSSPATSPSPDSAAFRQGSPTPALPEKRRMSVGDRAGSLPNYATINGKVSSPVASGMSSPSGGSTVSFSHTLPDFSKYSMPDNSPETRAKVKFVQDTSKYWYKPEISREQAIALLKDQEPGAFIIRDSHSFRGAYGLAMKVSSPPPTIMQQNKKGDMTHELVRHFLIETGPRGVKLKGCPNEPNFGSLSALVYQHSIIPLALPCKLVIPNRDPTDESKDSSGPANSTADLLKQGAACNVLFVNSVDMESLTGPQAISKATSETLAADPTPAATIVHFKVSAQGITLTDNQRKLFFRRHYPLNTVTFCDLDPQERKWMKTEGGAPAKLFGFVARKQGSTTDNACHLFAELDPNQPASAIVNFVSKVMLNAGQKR
UniProt Q9H0R3: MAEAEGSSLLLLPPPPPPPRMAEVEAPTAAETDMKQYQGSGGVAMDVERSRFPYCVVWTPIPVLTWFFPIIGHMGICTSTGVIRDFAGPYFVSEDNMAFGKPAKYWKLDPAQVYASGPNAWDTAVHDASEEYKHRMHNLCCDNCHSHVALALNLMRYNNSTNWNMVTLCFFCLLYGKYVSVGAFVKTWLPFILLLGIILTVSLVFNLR
UniProt Q86W33: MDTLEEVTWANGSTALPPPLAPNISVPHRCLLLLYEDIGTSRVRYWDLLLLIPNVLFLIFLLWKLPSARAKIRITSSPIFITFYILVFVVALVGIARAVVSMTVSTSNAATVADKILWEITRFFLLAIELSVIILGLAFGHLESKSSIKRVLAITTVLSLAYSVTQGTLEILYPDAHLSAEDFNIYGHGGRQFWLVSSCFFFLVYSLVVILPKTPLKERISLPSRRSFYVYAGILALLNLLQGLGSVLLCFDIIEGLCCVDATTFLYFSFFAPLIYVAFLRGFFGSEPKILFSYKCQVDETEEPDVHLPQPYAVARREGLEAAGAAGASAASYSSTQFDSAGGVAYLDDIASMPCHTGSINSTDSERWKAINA
UniProt O43399: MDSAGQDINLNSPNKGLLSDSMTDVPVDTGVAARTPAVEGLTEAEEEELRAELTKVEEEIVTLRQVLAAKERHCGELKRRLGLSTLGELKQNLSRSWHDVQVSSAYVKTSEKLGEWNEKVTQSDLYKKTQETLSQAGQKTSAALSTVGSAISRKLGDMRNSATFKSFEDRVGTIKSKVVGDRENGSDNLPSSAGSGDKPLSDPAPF

[2] = compound: CCCS(=O)(=O)Nc1ccc(F)c(C(=O)c2c[nH]c3ncc(Cl)cc23)c1F
Outline: as §1

[3] = compound: CCN(CCCOc1ccc2c(Nc3cc(CC(=O)Nc4cccc(F)c4)[nH]n3)ncnc2c1)CCOP(=O)(O)O [barasertib]
Outline: as §1

[4] = compound: CC[C@@H]1C(=O)N(C)c2cnc(Nc3ccc(C(=O)NC4CCN(C)CC4)cc3OC)nc2N1C1CCCC1
Outline: as §1

[5] = compound: CC[C@@H]1C(=O)N(C)c2cnc(Nc3ccc(C(=O)N[C@H]4CC[C@H](N5CCN(CC6CC6)CC5)CC4)cc3OC)nc2N1C(C)C [volasertib]
Outline: as §1

[6] = compound: CCn1c(C(=O)N(C2CC2)C2CC2)cc2c3c(ncn3C)c(Nc3cc(C)n(C)n3)nc21
Outline: as §1

[7] = compound: CCn1cc(-c2ccnc3[nH]c(-c4cccc(CN(C)C)c4)cc23)c(-c2ccc(NC(=O)N(C)C)cc2)n1
Outline: as §1

[8] = compound: CN1CCC(CNc2ccc3ncc(-c4cccc(OC(F)(F)F)c4)n3n2)CC1
Outline: as §1

[9] = compound: CN1CCN(CCOc2cc(OC3CCOCC3)c3c(Nc4c(Cl)ccc5c4OCO5)ncnc3c2)CC1 [saracatinib]
Outline: as §1

[10] = compound: CN1CC[C@H](c2c(O)cc(O)c3c(=O)cc(-c4ccccc4Cl)oc23)[C@H](O)C1 [alvocidib]
Outline: as §1

[11] = compound: CN1CCc2c(c3ccccc3n2Cc2ccc(C(=O)NO)cc2)C1 [Tubastatin A]
Outline: as §1

[12] = compound: CNC(=O)C1=CC=CC=C1NC2=NC(=NC=C2Cl)NC3=C(C=C(C=C3)N4CCOCC4)OC
Outline: as §1

[13] = compound: CNC(=O)c1ccc(Nc2ncc(C(F)(F)F)c(NCc3nccnc3N(C)S(C)(=O)=O)n2)cc1 [defactinib]
Outline: as §1

[14] = compound: CNc1nc(-c2ccc3c(N)n[nH]c3c2)cc(N2C[C@@H](C(=O)NC3CCCCC3)CC[C@H]2C)n1
Outline: as §1

[15] = compound: COC(=O)N[C@@H](C)CNc1nccc(-c2cn(C(C)C)nc2-c2cc(Cl)cc(NS(C)(=O)=O)c2F)n1 [encorafenib]
Outline: as §1

[16] = compound: COC(=O)[C@H](CCSC)NC(=O)C1=C(C=C(C=C1)NC[C@H](CS)N)C2=CC=CC=C2
Outline: as §1

[17] = compound: COc1cc(Nc2ncc3c(n2)-c2ccc(Cl)cc2C(c2c(F)cccc2OC)=NC3)ccc1C(=O)O [alisertib]
Outline: as §1

[18] = compound: COc1cc2nc(-c3cc(F)ccc3O)nc(N[C@@H]3CNC[C@H]3C(C)(C)O)c2cc1OC
Outline: as §1

[19] = compound: COc1cc2ncnc(Nc3ccc(F)c(Cl)c3)c2cc1OCCCN1CCOCC1 [gefitinib]
Outline: as §1

[20] = compound: CN1CCN(c2nc(C3=C(c4c[nH]c5ccccc45)C(=O)NC3=O)c3ccccc3n2)CC1 [sotrastaurin]
Outline: as §1

Measured: log2 fold change

TPK1 (UniProt Q9H3S4)
inactive: [1] 0.03 | [2] 0.018 | [3] -0.093 | [4] -0.007 | [5] -0.05 | [6] -0.045 | [7] -0.053 | [8] 0.085 | [9] 0.025 | [10] -0.061 | [11] 0.228 | [12] 0.001 | [13] -0.058 | [14] 0.003 | [15] 0.118 | [16] -0.05 | [17] 0.063 | [18] 0.033 | [19] 0.002

TNKS (UniProt O95271)
inactive: [1] -0.035 | [2] 0.124 | [4] 0.055 | [5] -0.11 | [6] 0.027 | [7] 0.207 | [8] -0.092 | [9] -0.007 | [20] 0.021 | [10] -0.223 | [11] -0.087 | [12] 0.04 | [13] -0.013 | [14] -0.031 | [15] -0.078 | [16] 0.022 | [17] -0.002 | [18] -0.072 | [19] -0.069

TMEM223 (UniProt A0PJW6)
inactive: [1] 0.133 | [2] -0.09 | [3] 0.003 | [4] -0.236 | [5] 0.137 | [6] 0.228 | [7] -0.049 | [8] -0.106 | [9] 0.039 | [20] 0.044 | [10] 0.046 | [11] -0.198 | [12] -0.006 | [13] 0.045 | [14] -0.166 | [15] 0.063 | [16] -0.219 | [17] 0.002 | [18] -0.097 | [19] 0.068

2 records drawn at random from the list so far:
TMEM223 (UniProt A0PJW6)
inactive: [1] 0.133 | [2] -0.09 | [3] 0.003 | [4] -0.236 | [5] 0.137 | [6] 0.228 | [7] -0.049 | [8] -0.106 | [9] 0.039 | [20] 0.044 | [10] 0.046 | [11] -0.198 | [12] -0.006 | [13] 0.045 | [14] -0.166 | [15] 0.063 | [16] -0.219 | [17] 0.002 | [18] -0.097 | [19] 0.068

TNKS (UniProt O95271)
inactive: [1] -0.035 | [2] 0.124 | [4] 0.055 | [5] -0.11 | [6] 0.027 | [7] 0.207 | [8] -0.092 | [9] -0.007 | [20] 0.021 | [10] -0.223 | [11] -0.087 | [12] 0.04 | [13] -0.013 | [14] -0.031 | [15] -0.078 | [16] 0.022 | [17] -0.002 | [18] -0.072 | [19] -0.069

Next results.

TMEM205 (UniProt Q6UW68)
inactive: [1] -0.013 | [2] 0.035 | [3] 0.114 | [4] -0.027 | [5] 0.021 | [6] -0.071 | [9] 0.034 | [20] -0.003 | [11] 0.064 | [12] 0 | [13] 0.025 | [14] -0.069 | [15] 0.057 | [16] -0.057 | [17] 0.03 | [18] -0.043 | [19] 0.033

TMEM237 isoform 3 (UniProt Q96Q45)
inactive: [1] 0.047 | [2] 0.219 | [5] -0.002 | [6] 0.175 | [7] -0.13 | [8] 0.103 | [9] 0.04 | [20] -0.021 | [10] -0.028 | [11] -0.124 | [13] -0.005 | [14] 0.024 | [17] -0.035 | [18] -0.021 | [19] -0.039

TNRC6A (UniProt Q8NDV7)
inactive: [1] 0.051 | [2] -0.242 | [3] -0.073 | [4] 0.141 | [5] 0.076 | [7] 0.001 | [8] 0.009 | [9] 0.088 | [20] 0.046 | [10] 0.045 | [12] 0.007 | [13] 0.011 | [14] -0.038 | [15] -0.145 | [16] 0.18 | [17] -0.004 | [18] 0.154 | [19] 0.157

TRABD (UniProt Q9H4I3)
inactive: [1] 0.144 | [2] -0.023 | [3] -0.031 | [4] 0.085 | [5] 0.034 | [6] -0.055 | [7] -0.071 | [8] 0.08 | [9] -0.043 | [20] -0.005 | [10] -0.047 | [11] 0.096 | [12] 0.052 | [13] -0.026 | [14] 0.088 | [15] -0.022 | [16] 0.038 | [17] 0.011 | [18] -0.043 | [19] 0.046

TMEM263 (UniProt Q8WUH6)
inactive: [1] 0.086 | [2] -0.024 | [3] 0.19 | [4] 0.133 | [5] 0.023 | [6] 0.097 | [7] -0.034 | [8] -0.242 | [9] 0.109 | [20] -0.003 | [10] 0.013 | [11] 0.266 | [12] 0.116 | [13] 0.213 | [14] -0.013 | [15] 0.285 | [16] 0.154 | [17] 0.202 | [18] 0.398 | [19] 0.222

TMEM256 (UniProt Q8N2U0)
inactive: [1] -0.081 | [2] 0.035 | [4] -0.035 | [5] 0.09 | [9] 0.132 | [13] 0.14 | [14] 0.218 | [15] 0.073 | [16] -0.018 | [18] -0.255

TMEM8A (UniProt Q9HCN3)
inactive: [1] 0.022 | [2] 0.059 | [3] 0.142 | [4] -0.084 | [5] -0.176 | [7] -0.085 | [8] 0.015 | [10] 0.148 | [12] 0.16 | [13] 0.126 | [15] 0.041 | [16] -0.044 | [18] 0.045

TMEM242 (UniProt Q9NWH2)
inactive: [1] -0.208 | [3] 0.017 | [4] -0.005 | [6] 0.018 | [7] 0.073 | [8] -0.048 | [9] 0.059 | [20] 0.019 | [10] 0.074 | [11] 0.09 | [13] -0.202 | [14] 0.115 | [15] 0.024 | [16] 0.133 | [17] -0.002 | [19] -0.045

TPM3 isoform 3 (UniProt P06753)
inactive: [1] -0.082 | [2] 0.011 | [4] -0.187 | [5] 0.036 | [6] 0.029 | [7] -0.493 | [8] 0.184 | [9] 0.009 | [20] 0.028 | [10] -0.202 | [11] -0.049 | [12] 0.028 | [13] 0.074 | [14] -0.137 | [15] -0.014 | [16] -0.039 | [18] -0.001

TNFSF9 (UniProt P41273)
inactive: [7] 0.157 | [8] 0.047 | [10] -0.146

TNS1 (UniProt Q9HBL0)
inactive: [3] 0.232 | [4] 0.14 | [7] -0.112 | [8] 0.215 | [20] 0.059 | [10] -0.033 | [15] -0.064 | [16] 0.096 | [17] -0.141 | [19] 0.028

TMEM222 (UniProt Q9H0R3)
inactive: [2] 0.008 | [3] -0.02 | [4] -0.088 | [5] 0.079 | [6] 0.091 | [9] -0.021 | [20] 0.134 | [11] 0.014 | [12] -0.023 | [14] 0.163 | [15] 0.03 | [16] 0.145 | [17] 0.068 | [18] -0.145 | [19] -0.097

TPRA1 (UniProt Q86W33)
inactive: [2] -0.019 | [5] -0.032 | [6] -0.102 | [7] -0.048 | [8] 0.008 | [9] 0.067 | [20] 0.004 | [10] -0.293 | [11] -0.06 | [12] 0.004 | [14] -0.067 | [18] 0.021

TPD52L2 isoform 3 (UniProt O43399)
inactive: [3] 0.026 | [6] -0.028 | [7] -0.141 | [8] 0.135 | [10] 0.127 | [11] 0.165 | [12] 0.144 | [17] 0.094 | [19] -0.244

TMTC4 isoform 3 (UniProt Q5T4D3)
inactive: [4] -0.021 | [6] -0.18 | [9] 0.093 | [11] -0.133 | [14] 0.145 | [15] 0.03 | [16] -0.04

From the supplement of paper PMC10849652
